Measurements published in publication PMC9953004 (Biomedicines, 2023).
Where no end group is shown, it is not given here. [ ]: non-standard residue; d: D form. The star is where a group is joined. DOTA = O=C(O)CN1CCN(CC(=O)O)CCN(CC(=O)*)CCN(CC(=O)O)CC1

Key:
[1] = peptide made by a vendor (peptide synthesis; preloaded Fmoc-Arg(Pbf)-Wang resin; DIC/HOBt; active ester method for DOTA-tris(tBu)-NHS); conditions: whole synthesis, trifluoroacetate salt
[2] = general procedure: Fmoc solid-phase peptide synthesis; preloaded Fmoc-Arg(Pbf)-Wang resin; DIC/HOBt; active ester method for DOTA-tris(tBu)-NHS; conditions: whole synthesis, trifluoroacetate salt (vendor conjugates)

[dR][dP][dP][dL][dW][dT][dA][dK](DOTA)
final purity (method not given) [1]: > 99%

K(DOTA)ATWLPPR
final purity (method not given) [1]: > 99%

DOTA-Ahx-A7R
final purity (method not given) [2]: >98%
isolated yield [2]: 37%

Lys(hArg)-Dab(Ahx-DOTA)-Pro-Arg
final purity (method not given) [2]: > 95%
isolated yield [2]: 27%
